Laboratory results as given in patent US20190077860A1.
Residue numbers refer to the chain shown, from its start. These are yes or no findings as the source states them, for the method shown. Some binding calls cover weakened binding; strength is not graded here. One block for each binder: values may come before it.

By UniProt entry, the sequences of proteins in these tests, tags left out. Residues count along the entry.
UniProt P54764, residues 29-209: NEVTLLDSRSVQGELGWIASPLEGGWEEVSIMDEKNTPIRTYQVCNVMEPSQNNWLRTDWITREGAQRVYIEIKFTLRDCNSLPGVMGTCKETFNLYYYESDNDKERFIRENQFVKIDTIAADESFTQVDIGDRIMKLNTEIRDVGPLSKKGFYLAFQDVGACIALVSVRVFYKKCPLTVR

Legend:
[1] = target: human EphA4 extracellular region-SEAP-His protein (human) (UniProt P54764); experiment: ELISA
[2] = target: human EphA4 extracellular region-SEAP-His protein (human) (UniProt P54764); experiment: SPR
[3] = target: EphA4 Ligand-Binding Domain (EphA4-LBD) (UniProt P54764); experiment: complex purified by gel filtration and crystallized

binding [1]: binds
binding [2]: binds
B1: humanized antibody No. 156 (antibody, human IgG2)
heavy: QIQLVQSGSELKKPGASVKVSCKASGYTFTDYSMHWVRQAPGQGLKWMGWINTETGEPTYAQGFTGRFVFSLDTSVSTAYLQISSLKAEDTAVYYCARIPLYYYGSRYWYFDVWGQGTTVTVSSASTKGPSVFPLAPSSRSTSESTAALGCLVKDYFPEPVTVSWNSGALTSGVHTFPAVLQSSGLYSLSSVVTVPSSNFGTQTYTCNVDHKPSNTKVDKTVERKSCVECPPCPAPPAAAPSVFLFPPKPKDTLMISRTPEVTCVVVDVSHEDPEVQFNWYVDGVEVHNAKTKPREEQFNSTFRVVSVLTVVHQDWLNGKEYKCKVSNKGLPAPIEKTISKTKGQPREPQVYTLPPSREEMTKNQVSLTCLVKGFYPSDIAVEWESNGQPENNYKTTPPMLDSDGSFFLYSKLTVDKSRWQQGNVFSCSVMHEALHNHYTQKSLSLSPG
light: DIQMTQSPSSLSASVGDRVTITCRASENIYRNLAWYQQKPGKAPQLLLYAATNLADGVPSRFSGSGSGTDYTLTISSLQPEDFATYYCQHFWGTPWTFGQGTKVEIKRTVAAPSVFIFPPSDEQLKSGTASVVCLLNNFYPREAKVQWKVDNALQSGNSQESVTEQDSKDSTYSLSSTLTLSKADYEKHKVYACEVTHQGLSSPVTKSFNRGEC

binding [1]: binds
binding [2]: binds
B2: humanized antibody No. 136 (antibody, human IgG2)
heavy: B1 heavy with I2V, Q62D, G63D, T65K
light: EIVMTQSPATLSVSPGERATLSCRASENIYRNLAWYQQKPGQSPRLLIYAATNLADGIPARFSGSGSGTEYTLTISSLQSEDFAVYYCQHFWGTPWTFGQGTKVEIKRTVAAPSVFIFPPSDEQLKSGTASVVCLLNNFYPREAKVQWKVDNALQSGNSQESVTEQDSKDSTYSLSSTLTLSKADYEKHKVYACEVTHQGLSSPVTKSFNRGEC

binding [3]: binds
B3: antibody A-Fab (Fab, V domains shown, not shown: a dimerising Fc or GST)
VH: QIQLVQSGPELKKPGETVKISCKASGYTFTDYSMHWVKQAPGKGLKWMGWINTETGEPTYADDFKGRFAFSLETSASTAYLQINNLKNEDTATYFCARIPLYYYGSRYWYFDVWGAGTTVTVSS
VL: DIQMTQSPASLSVSVGETVTITCRASENIYRNLAWYQQKQGKSPQLLVYAATNLADGVPSRFSGSGSGTQYSLKINSLQSEDFGSYYCQHFWGTPWTFGGGTKLEIKR
